No constants are given. Whether binding was seen depends on the method and setting. In cells and extracts the contact can be indirect. A result given as binding can be weak or reduced; the word gives no strength. Sequences can lack the tags named with a protein.
Assays:
Assay in all cases: co-IP; HEK-293T co-transfected with GFP, GFP-USP49Long or GFP-USP49Short (or USP49 mutants) and the FLAG-tagged partner; lysed 24 h later in co-IP buffer (150 mM NaCl, 20 mM Tris-HCl pH 7.4, 1% NP-40, 1 mM MgCl2) with Benzonase; immunoprecipitation with anti-FLAG, control IgG or anti-CETN3 on Dynabeads Protein G; western blot
CETN3-FLAG (human) = molecular target: T1, CETN3-FLAG (human) (UniProt O15182)
T1 sequence: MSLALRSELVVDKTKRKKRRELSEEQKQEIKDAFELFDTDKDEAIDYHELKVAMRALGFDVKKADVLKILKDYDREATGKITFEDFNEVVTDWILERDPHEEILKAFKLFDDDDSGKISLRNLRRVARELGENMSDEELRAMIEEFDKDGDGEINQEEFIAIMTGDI

USP44-FLAG-HA = molecular target: T2, USP44-FLAG-HA (UniProt Q9H0E7)
T2 sequence: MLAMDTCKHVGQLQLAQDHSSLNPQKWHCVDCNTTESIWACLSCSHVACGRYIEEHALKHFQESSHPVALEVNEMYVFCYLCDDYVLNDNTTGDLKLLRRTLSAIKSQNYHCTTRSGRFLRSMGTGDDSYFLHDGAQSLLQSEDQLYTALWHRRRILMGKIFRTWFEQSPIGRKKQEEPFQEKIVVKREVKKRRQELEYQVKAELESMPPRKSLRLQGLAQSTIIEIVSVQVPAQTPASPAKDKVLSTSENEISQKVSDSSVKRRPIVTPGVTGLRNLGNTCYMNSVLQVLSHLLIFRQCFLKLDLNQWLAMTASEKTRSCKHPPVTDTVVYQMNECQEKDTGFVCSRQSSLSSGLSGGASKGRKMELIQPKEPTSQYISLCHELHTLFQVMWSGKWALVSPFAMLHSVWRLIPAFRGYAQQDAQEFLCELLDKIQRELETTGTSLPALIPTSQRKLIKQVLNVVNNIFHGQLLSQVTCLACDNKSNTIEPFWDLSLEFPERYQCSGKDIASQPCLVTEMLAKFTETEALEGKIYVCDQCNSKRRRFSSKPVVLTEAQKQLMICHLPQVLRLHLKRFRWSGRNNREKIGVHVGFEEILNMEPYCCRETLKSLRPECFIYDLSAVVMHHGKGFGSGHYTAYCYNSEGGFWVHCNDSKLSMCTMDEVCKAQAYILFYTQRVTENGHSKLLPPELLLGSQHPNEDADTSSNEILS

RPN1-FLAG (ribophorin 1) = molecular target: T3, RPN1-FLAG (ribophorin 1) (UniProt P04843)
T3 sequence: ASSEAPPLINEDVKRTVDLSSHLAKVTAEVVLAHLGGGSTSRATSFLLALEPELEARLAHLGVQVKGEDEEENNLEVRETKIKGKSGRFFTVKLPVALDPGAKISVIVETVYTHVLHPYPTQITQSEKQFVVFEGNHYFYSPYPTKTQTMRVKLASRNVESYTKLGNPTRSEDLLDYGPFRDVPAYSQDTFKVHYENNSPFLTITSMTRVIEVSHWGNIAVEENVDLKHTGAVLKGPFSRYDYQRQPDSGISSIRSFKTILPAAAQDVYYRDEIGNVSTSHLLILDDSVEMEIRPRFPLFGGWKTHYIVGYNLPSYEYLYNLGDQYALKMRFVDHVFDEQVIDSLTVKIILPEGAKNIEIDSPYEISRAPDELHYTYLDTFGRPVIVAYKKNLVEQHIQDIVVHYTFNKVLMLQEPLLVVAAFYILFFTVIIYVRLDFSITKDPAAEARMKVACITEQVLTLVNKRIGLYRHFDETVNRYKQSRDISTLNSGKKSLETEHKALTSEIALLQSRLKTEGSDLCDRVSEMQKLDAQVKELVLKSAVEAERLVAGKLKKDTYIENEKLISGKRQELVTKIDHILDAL

Row | binding (CETN3-FLAG (human)) | binding (USP44-FLAG-HA) | binding (RPN1-FLAG (ribophorin 1)) | Substance
1 | binds | binds | – | GFP-USP49Short (pCDH-GFP-USP49Short) (enzyme)
2 | – | – | binds | GFP-USP49Short (pEGFP-USP49Short) (enzyme)
3 | binds | – | – | USP49Short^W158A (enzyme)

— PMC9879932
